Source: PubChem BioAssay AID264 (DTP/NCI, 2004)
The list is a part of this screen's results and no random one: it gathers tests that were run many times, whatever their T/C, doses with no T/C, and many T/C values between a quarter and a half above the control. Other doses and runs of a compound stand elsewhere. T/C gives the treated animals as a percentage of the vehicle group. Schedules are NCI's codes, taken here to give the interval after Q, in days (D) or hours (H), and the number of doses after X. Some entries were tested several times; their values stand side by side, smallest first. Some T/C values carry the count of animals alive at the toxicity check (mostly the fifth day); without a count, all were alive then. Some doses have a count of surviving animals in place of a T/C: the source files T/C as zero there, which appears to mark a toxic dose or a test without result, not a measured value. Counts of survivors are from the toxicity check (mostly the fifth day) where no day follows; animals may have died later. Numbered stars: 1 amine (or outer) side, 2 acyl side, 3 side chain; on linkers, the order of the positions; unused ones are H or OH. Square brackets hold non-standard residues; d marks the D form. Peptide text beside a SMILES is read from it. * marks the point of attachment. X2 = CCC(=O)CC1CC(C)CC(C(=O)[*:2])N1[*:1]; X1 = CCCCCCCCC(C)C(=O)*; Aib = CC(C)(N)C(=O)O; X3 = CC(CN(C)CCO)N*

Tested on: nude mice, LX-1 lung xenograft intrarenal, tumor weight T/C
Assay: NCI In Vivo Anticancer Drug Screen. Data for tumor model Human Lung LX-1 Xenograft (intrarenal inoculation) in NU/NU Swiss (nude) mice
Settings: T/C endpoint: mean tumor weight change, higher T/C = larger tumour; for T/C: evaluated on day 11
Outline: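 Compound-treated mice carrying transplanted tumors were compared with vehicle-treated controls. Tumor size was the measured end point, and the value is the treated-group measurement divided by the control-group measurement (T/C).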

[1] = dose: 100.0 mg/kg/injection, schedule: Q04DX003 (sc), vehicle: water
[2] = dose: 200.0 mg/kg/injection, schedule: Q04DX003 (sc), vehicle: water
[3] = dose: 100.0 mg/kg/injection, schedule: Q01DX010 (sc), vehicle: Klucel (hydroxypropylcellulose) (HPC)
[4] = dose: 200.0 mg/kg/injection, schedule: Q01DX010 (sc), vehicle: Klucel (hydroxypropylcellulose) (HPC)

C1CCC2OCCOCCOC3CCCCC3OCCOCCOC2C1 (stereo not given)
T/C (dose: 37.5 mg/kg/injection, schedule: Q04DX003 (sc), vehicle: Klucel (hydroxypropylcellulose) (HPC)): 138 % of control [4 of 6 alive on day 11] | survivor count (dose: 75.0 mg/kg/injection, schedule: Q04DX003 (sc), vehicle: Klucel (hydroxypropylcellulose) (HPC)): 0 of 6 on day 11

O=C1C2(Cl)C3(Cl)C4(Cl)C(Cl)(Cl)C5(Cl)[C@]3(Cl)C1(Cl)[C@]5(Cl)C24Cl (stereo not given in full)
survivor count (dose: 300.0 mg/kg/injection, schedule: Q04DX003 (sc), vehicle: Klucel (hydroxypropylcellulose) (HPC)): 1 of 6 on day 11

CCCCC1CCCCCCc2[nH]c(/C=C3\N=C(c4ccc[nH]4)C=C3OC)cc21 (stereo not given)
survivor count (dose: 32.0 mg/kg/injection, schedule: Q04DX003 (sc), vehicle: saline with Tween-80): 3 of 6 on day 11

OCC1OC(n2cnc3cncnc32)C(O)C1O (stereo not given)
survivor count (dose: 100.0 mg/kg/injection, schedule: Q04DX003 (sc), vehicle: saline): 2 of 6 on day 11

CNc1nc(N(C)C)nc(N(C)C)n1
T/C (dose: 25.0 mg/kg/injection, schedule: Q04DX003 (sc), vehicle: water): 130 % of control [5 of 6 alive on day 11] | T/C (dose: 50.0 mg/kg/injection, schedule: Q04DX003 (sc), vehicle: water): 140 % of control | T/C [1]: 125 % of control | survivor count (dose: 120.0 mg/kg/injection, schedule: Q01DX010 (ip), vehicle: water): 1 of 3 on day 11 | survivor count [2]: 1 of 3 on day 11 | survivor count (dose: 400.0 mg/kg/injection, schedule: Q04DX003 (ip), vehicle: water): 0 of 3 on day 11 | survivor count (dose: 400.0 mg/kg/injection, schedule: Q04DX003 (sc), vehicle: water): 0 of 3 on day 11

OC(CBr)C(O)C(O)C(O)CBr (stereo not given)
survivor count (dose: 120.0 mg/kg/injection, schedule: Q01DX010 (sc), vehicle: Klucel (hydroxypropylcellulose) (HPC)): 1 of 2 on day 11 | survivor count (dose: 1600.0 mg/kg/injection, schedule: Q01DX010 (sc), vehicle: Klucel (hydroxypropylcellulose) (HPC)): 0 of 3 on day 11

Nc1ccc2nc3ccc(N)cc3[n+](-c3ccccc3)c2c1
survivor count (dose: 144.0 mg/kg/injection, schedule: Q04DX003 (sc), vehicle: saline): 1 of 6 on day 11 | survivor count (dose: 288.0 mg/kg/injection, schedule: Q04DX003 (sc), vehicle: saline): 0 of 6 on day 11

CCCCCCCCC(C)C(=O)N1CCCC1C(=O)N1C(CC(=O)CC)CC(C)CC1C(=O)NC(C)C(=O)NC(C)(C)C(=O)NC(C)(C)C(=O)NC(C(=O)NC(C)C(=O)NC(C)(C)C(=O)NC(C)(C)C(=O)NC(C)CN(C)CCO)C(C)CC (stereo not given) (X1-P[X2]A[Aib][Aib]IA[Aib][Aib]-X3; configuration not given here)
T/C (dose: 1.25 mg/kg/injection, schedule: Q04DX003 (sc), vehicle: Klucel (hydroxypropylcellulose) (HPC)): 126 % of control | T/C (dose: 2.5 mg/kg/injection, schedule: Q04DX003 (sc), vehicle: Klucel (hydroxypropylcellulose) (HPC)): 126 % of control | survivor count (dose: 10.0 mg/kg/injection, schedule: Q04DX003 (sc), vehicle: Klucel (hydroxypropylcellulose) (HPC)): 3 of 6 on day 11

CC(=O)OCC(=O)[C@@]12OC(C)(C)O[C@@H]1C[C@H]1[C@@H]3CC(C=O)=C4C=C(OCCCl)CC[C@]4(C)[C@@]3(F)[C@@H](O)C[C@@]12C
survivor count (dose: 100.0 mg/kg/injection, schedule: Q04DX003 (sc), vehicle: Klucel (hydroxypropylcellulose) (HPC)): 1 of 6 on day 11 | survivor count (dose: 200.0 mg/kg/injection, schedule: Q04DX003 (sc), vehicle: Klucel (hydroxypropylcellulose) (HPC)): 2 of 6 on day 11

CC1C=NNC1=O (stereo not given)
survivor count (dose: 800.0 mg/kg/injection, schedule: Q01DX010 (sc), vehicle: saline with Tween-80): 1 of 3 on day 11

CNC(=O)c1cccc2c(Nc3ccc(NS(C)(=O)=O)cc3OC)c3cccc(C)c3nc12
survivor count [1]: 1 of 3 on day 11 | survivor count [2]: 0 of 3 on day 11

CC(=O)O[C@H]1C(=O)[C@@]2(C)[C@H]([C@H](OC(=O)c3ccccc3)[C@]3(O)C[C@H](OC(=O)[C@H](O)[C@@H](NC(=O)c4ccccc4)c4ccccc4)C(C)=C1C3(C)C)[C@]1(OC(C)=O)CO[C@@H]1C[C@@H]2O
T/C (dose: 50.0 mg/kg/injection, schedule: Q01DX010 (sc), vehicle: Klucel (hydroxypropylcellulose) (HPC)): 8 [2 of 3 alive on day 11], 38, 51 % of control [2 of 3 alive on day 11] | T/C [3]: 28 and 31 % of control | survivor count [3]: 0 of 1 on day 11 and 0 of 3 on day 11 | T/C [4]: 13 [5 of 6 alive on day 11] and 27 % of control [2 of 3 alive on day 11] | survivor count [4]: 1 of 3 on day 11 | survivor count (dose: 400.0 mg/kg/injection, schedule: Q01DX010 (sc), vehicle: Klucel (hydroxypropylcellulose) (HPC)): 0 of 3 on day 11 and 1 of 3 on day 11

CCCCCCCC(=O)[O][Hg][CH2]C1COC([CH2][Hg][O]C(=O)CCCCCCC)CO1 (stereo not given)
T/C (dose: 12.5 mg/kg/injection, schedule: Q01DX010 (sc), vehicle: saline with Tween-80): 130 % of control

O=C1NC(=O)C2C3C=CC(C12)C1C2C(=O)NC(=O)C2C31 (stereo not given)
T/C (dose: 200.0 mg/kg/injection, schedule: Q04DX003 (sc), vehicle: saline with Tween-80): 125 % of control

O=c1[nH]c(=O)n(C2CC(O)C(CO)O2)cc1F (stereo not given)
T/C (dose: 25.0 mg/kg/injection, schedule: Q01DX010 (sc), vehicle: water): 146 % of control | survivor count (dose: 200.0 mg/kg/injection, schedule: Q01DX010 (sc), vehicle: water): 0 of 3 on day 11

CCCCCCCCCCCCSC1=C(Cl)C(=O)C(OC)=C(OC)C1=O
survivor count (dose: 300.0 mg/kg/injection, schedule: Q04DX003 (sc), vehicle: saline with Tween-80): 3 of 6 on day 11 | survivor count (dose: 600.0 mg/kg/injection, schedule: Q04DX003 (sc), vehicle: saline with Tween-80): 3 of 6 on day 11

O=CC(O)C(O)C(O)C(O)C(=O)O.[NH-]C1CCCCC1[NH-].[Pt+2] (stereo not given)
survivor count (dose: 37.5 mg/kg/injection, schedule: Q04DX003 (sc), vehicle: suspension in saline): 1 of 6 on day 11 | survivor count (dose: 75.0 mg/kg/injection, schedule: Q04DX003 (sc), vehicle: suspension in saline): 0 of 6 on day 11

OCCN1CCN(CC/C=C2/c3ccccc3Sc3ccc(C(F)(F)F)cc32)CC1
survivor count (dose: 80.0 mg/kg/injection, schedule: Q01DX010 (sc), vehicle: saline): 0 of 3 on day 11

CCN(CC)CCCNc1nccc2c(C)c3[nH]c4ccncc4c3cc12
T/C (dose: 2.5 mg/kg/injection, schedule: Q01DX010 (sc), vehicle: other): 125 % of control | survivor count (dose: 20.0 mg/kg/injection, schedule: Q01DX010 (sc), vehicle: other): 0 of 3 on day 11

CC(=O)NC(C=O)OCC=O (stereo not given)
survivor count (dose: 800.0 mg/kg/injection, schedule: Q04DX003 (sc), vehicle: water): 1 of 6 on day 11

CCCCNC(C)C1(O)Cc2c(O)c3c(c(O)c2C(OC2CC(N)C(O)C(C)O2)C1)C(=O)c1c(OC)cccc1C3=O (stereo not given)
survivor count (dose: 1200.0 mg/kg/injection, schedule: Q04DX003 (sc), vehicle: water): 0 of 3 on day 11

Cc1ccccc1CN1C2=NCCN2C(=O)C2=C1CCN(S(=O)(=O)c1ccc(Cl)c(S(N)(=O)=O)c1)C2
T/C (dose: 1200.0 mg/kg/injection, schedule: Q04DX003 (sc), vehicle: saline): 145 % of control [5 of 6 alive on day 11]

CC(C)=CC(=O)OC1C2C(C)=CC(=O)C(O)C2(C)C2C3(O)OCC24C(CC(=O)OC14)C(C)C3O (stereo not given)
survivor count (dose: 5.0 mg/kg/injection, schedule: Q04DX003 (sc), vehicle: distilled water + Tween-80): 0 of 3 on day 11 | survivor count (dose: 10.0 mg/kg/injection, schedule: Q04DX003 (sc), vehicle: distilled water + Tween-80): 0 of 2 on day 11

NC(=O)c1[nH]nc(C2OC(CO)C(O)C2O)c1O (stereo not given)
survivor count (dose: 5.0 mg/kg/injection, schedule: Q04DX003 (sc), vehicle: saline): 3 of 6 on day 11 | survivor count (dose: 10.0 mg/kg/injection, schedule: Q04DX003 (sc), vehicle: saline): 3 of 6 on day 11 | survivor count (dose: 20.0 mg/kg/injection, schedule: Q04DX003 (sc), vehicle: saline): 2 of 6 on day 11 | survivor count (dose: 40.0 mg/kg/injection, schedule: Q04DX003 (sc), vehicle: saline): 1 of 6 on day 11
